Source: PMC10876603
These are yes or no findings as the source states them, for the method shown. A result given as binding can be weak or reduced; the word gives no strength. For some assays here: In cells and extracts the contact can be indirect.

Key:
[1] = biological target: Xenopus INCENP with N-terminal 6xHIS tag (Xenopus laevis) (UniProt O13024); test: co-sedimentation; purified CEN or CPC diluted into buffer with 150 mM NaCl to induce phase separation, 21,130 RCF 5 min at 23 °C, pellet analysed by SDS-PAGE against input; subunits were co-expressed and co-purified
[2] = biological target: Xenopus INCENP with N-terminal 6xHIS tag (Xenopus laevis) (UniProt O13024); test: SEC; four subunits co-expressed in E. coli, captured on Ni2+ resin by the 6xHIS tag of INCENP, then Superdex 200 in 50 mM Tris pH 7.9, 500 mM NaCl, 5% glycerol, 0.5 mM TCEP (high salt); identity of all four subunits confirmed by mass spectrometry

## Xenopus Survivin-B (from UniProt Q8JGN5)
[1]
  binding: binds
[2]
  binding: binds
